Among all 320,000 compounds or so, about 740 (0.23%) were called active. Inconclusive means that the source gave no clear call. Such entries were picked first, then a sample of the others. The call rests on the fitted dose curve; in most records, active means well fitted activation curve with a large enough effect; inconclusive means small, poorly fitted or top-dose-only effect; inactive means no such curve, though single readings can be large or run the other way. Potencies of inconclusive entries are doubtful fits and often do not repeat.
Assay: qHTS Assay for Small Molecule Inhibitors of Mitochondrial Division or Activators of Mitochondrial Fusion; further: nearly all actives have a fitted effect of over 45% in size
Conditions: S. cerevisiae fusion-defective mutant growth rescue, CellTiterGlo 48 h; series mostly up to 46.1 µM
In short: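 Growth-rescue viability read-out: after 48 h at the non-permissive 37C in glycerol/ethanol YPEG, yeast mitochondrial fusion mutants are measured by CellTiterGlo luminescence; compounds (23 nl pinned per well) restoring growth score as division inhibitors or fusion activators.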
Potency means the concentration at half of the fitted maximal effect.

SMILES	Potency
Cc1ccccc1N=C1SCC(=O)N1Cc1ccccc1	inconclusive: 12.6 µM [activator, partial curve]
CC(=O)N(CCC(Cc1ccccc1)c1ccc2c(c1)OCO2)Cc1ccc(Cl)cc1 (stereo unspecified)	inconclusive: 31.6 µM [activator, single point]
COc1ccnc2c1c(=O)n(Cc1cccc(Cl)c1)c(=O)n2C	inconclusive: 3.55 µM [activator, single point]
COc1ccc2cc(CCC(C)=O)ccc2c1	inconclusive: 35.5 µM [activator, single point]
CCOC(=O)c1ccc(NC(=O)NCCc2ccccc2OC)cc1	inconclusive: 35.5 µM [activator, single point]
C=CCN(CC=C)C(=S)Nc1ccc(OC)c(OC)c1	inconclusive: 7.94 µM [activator, single point]
CCOC(=O)c1sc(NC(=O)c2c(C)nn(Cc3ccccc3)c2C)cc1C	inconclusive: 11.2 µM [activator, partial curve]
CC(=O)c1ccc(NC(=O)c2ccc(CSc3ccccc3)o2)cc1	inconclusive: 22.4 µM [activator, single point]
Cc1ccc(S(=O)(=O)NCCC(=O)N2CCN(S(=O)(=O)c3ccccc3)CC2)cc1C	inactive
Cc1cc2ncn(CS(C)(=O)=O)c2cc1C	inactive
Cc1cc(C)c(C#N)c(SCc2ccc3c(c2)OCO3)n1	inconclusive: 15.8 µM [activator, single point]
O=c1[nH]n2c(C(F)(F)F)cc(C3CC3)nc2c1N=Nc1ccccc1	inconclusive: 5.62 µM [activator, single point]
O=C(CSc1nnc2c(Cl)cc(Cl)cn12)NC1CCS(=O)(=O)C1 (stereo unspecified)	inconclusive: 5.01 µM [activator, single point]
Cc1cc(N2CCN(c3ccccc3Cl)CC2)n2cc(-c3ccccc3)nc2n1	inconclusive: 31.6 µM [activator, single point]
COc1ccc(S(=O)(=O)n2oc(=O)cc2-c2ccccc2)cc1OC	inactive
N#Cc1c(NC(=S)NC(=O)c2ccccc2)sc2c1CCCC2	inactive
C=CCO/N=C(\C)c1c(O)c(C)c(-c2ccccc2)n(-c2ccccc2)c1=O	inconclusive: 11.2 µM [activator, partial curve]
CC1(C)Cc2c(C#N)c(SCC(=O)c3ccccc3)nc(N3CCOCC3)c2CS1	inconclusive: 20 µM [activator, partial curve, poor fit]
Cc1cc(C(=O)NNC(=O)c2ccc(Cl)cc2)no1	inactive
O=C(COc1ccccc1)N1c2ccccc2Sc2ccccc21	inconclusive: 35.5 µM [activator, single point]
CC(C)CCNC(=O)C12CN(Cc3ccccc3)CC1C(c1ccc([N+](=O)[O-])cc1)=NO2 (stereo unspecified)	inconclusive: 12.6 µM [activator, single point]
Cn1c(SCC(=O)N2CCCC2)nnc1-c1cnccn1	inconclusive: 31.6 µM [activator, single point]
COc1ccc(-c2cc(C)no2)cc1S(=O)(=O)Nc1cccc(C)c1	inconclusive: 35.5 µM [activator, single point]
COc1ccccc1OCCC(=O)OCC(=O)Nc1ccc(Br)cc1	inactive

Gathered by group: those above with a thiophene ring, fused or not.
SMILES	Potency
CCOC(=O)c1sc(NC(=O)c2c(C)nn(Cc3ccccc3)c2C)cc1C	inconclusive: 11.2 µM [activator, partial curve]
N#Cc1c(NC(=S)NC(=O)c2ccccc2)sc2c1CCCC2	inactive

Later entries.

SMILES	Potency
COc1ccccc1-c1sc2cc3c(cc2c1C#CC1(O)CCCCC1)OCO3	inconclusive: 10 µM [activator, single point]
C/C(=N\NC(=S)NCc1ccccc1)c1ccc(Cl)cc1	inconclusive: 25.1 µM [activator, single point]
CCC(C(=O)Nc1cc(F)ccc1F)n1nc(C)c2c(C)n(-c3ccc(C)cc3)nc2c1=O (stereo unspecified)	inactive
CC(=O)c1c(C(C)=O)c(C)n(-c2nc(-c3ccc(Br)cc3)c(C)s2)c1C	inactive
CCn1c(-c2cc(-c3ccc(C)c(C)c3)nc3ccccc23)n[nH]c1=S	inconclusive: 25.1 µM [activator, single point]
O=S(=O)(NCc1ccc(F)cc1)c1cc(Br)ccc1Br	inconclusive: 12.6 µM [activator, single point]
CSc1ccc(CN(C)C(=O)CNC(=O)c2sc3ccccc3c2Cl)cc1	inactive
COC(=O)c1sccc1NC(=O)COc1cccc(C)c1	inconclusive: 22.4 µM [activator, single point]
Cc1ccc(SCCNC(=S)Nc2ccc(C)cc2C)cc1	inconclusive: 35.5 µM [activator, single point]
O=C(NC(=S)NCc1ccccc1)c1ccc2c(c1)OCO2	inconclusive: 35.5 µM [activator, single point]
O=[N+]([O-])c1ccc(NC(=S)N2CCc3ccccc3C2)cc1	inconclusive: 31.6 µM [activator, single point]
NC(=O)COC(=O)c1oc2ccccc2c1CSc1ccc(Cl)cc1	inconclusive: 14.1 µM [activator, partial curve]
CCCc1ccc(S(=O)(=O)Nc2ccc(C)c(NS(C)(=O)=O)c2)cc1	active: 5.62 µM
COc1cc(/C=C(\NC(C)=O)C(=O)NC(C)(C)CC(C)(C)C)ccc1OC(C)=O	inconclusive: 35.5 µM [activator, single point]
CCOc1ccc2[nH]cc(S(=O)(=O)c3ccc(Cl)cc3)c(=O)c2c1	inconclusive: 35.5 µM [activator, single point]
CCCOc1cccc(C(=O)Nc2cc(NC(=O)c3ccco3)ccc2OC)c1	inconclusive: 14.1 µM [activator, single point]
O=c1[nH]c2ccccc2n1CCC1CCCCC1	inconclusive: 3.98 µM [activator, full curve]
COCCCN(C(=S)Nc1cc(Cl)cc(Cl)c1)C(C)c1ccncc1 (stereo unspecified)	inconclusive: 12.6 µM [activator, partial curve]
Cc1nc(N2CCC(C)CC2)c2oc3ccccc3c2n1	inconclusive: 22.4 µM [activator, single point]
CC(C)OC(=O)CC(=O)CSc1nc2c(c(-c3cccs3)c1C#N)CCC2	inconclusive: 35.5 µM [activator, single point]
CN(Cc1ccccc1)C(=O)c1ccc(Cl)c([N+](=O)[O-])c1	inactive
Cc1nnc(NC(=O)CSc2nnc(CCNC(=O)c3ccccc3F)n2C)s1	inactive
COc1cc(NC(=O)c2ccc(OC)c([N+](=O)[O-])c2)ccc1NC(=O)c1cccs1	inactive
Cc1ccc(C2=CC(=O)C[C@H](c3ccc(F)cc3)C2)cc1	inconclusive: 15.8 µM [activator, single point]

SMILES	Potency
CC1(C)OC(=O)N(c2ccccc2)C12C=Cc1c(ccc3ccccc13)O2 (stereo unspecified)	inconclusive: 11.2 µM [activator, partial curve]
O=C(NCCc1ccc(F)cc1)c1ccc(Cl)c(S(=O)(=O)N2CCOCC2)c1	inactive
Cc1cccc(N2CCN(C(c3ccccc3)c3nnnn3CC3CCCO3)CC2)c1C (stereo unspecified)	inconclusive: 20 µM [activator, partial curve]
CCCCC(=O)NC(c1cccc([N+](=O)[O-])c1)c1c(OC(C)=O)ccc2ccccc12 (stereo unspecified)	inconclusive: 12.6 µM [activator, partial curve]
Cc1nc(Nc2c(Cl)cccc2Cl)sc1C(=O)Nc1ccccc1	active: 17.8 µM
Cc1cc(C)cc(C(=O)N2CCN(c3ccccn3)CC2)c1	inactive
Fc1cccc(CCN2C(=S)NC[C@@H]2Cc2ccccc2)c1	inactive
CC1Cc2ccccc2N1C(=S)NC(=O)c1ccc(Cl)cc1Cl (stereo unspecified)	inconclusive: 11.2 µM [activator, partial curve]
COc1ccc([C@H]2CC(=O)C=C(c3cc(Cl)ccc3OC)C2)cc1	inconclusive: 14.1 µM [activator, single point]
O=C(/C=C/c1ccc(Cl)cc1)N(c1ccccn1)C1CCCCC1	inconclusive: 15.8 µM [activator, partial curve]
CCOC(=O)C1(CCCc2ccccc2)CCN(S(C)(=O)=O)CC1	inactive
Cc1ccc(S(=O)(=O)N(CC(=O)Nc2cccnc2)c2cccc([N+](=O)[O-])c2)cc1	inactive
Cc1cccc(C)c1N1C(=O)[C@@H]2C(c3ccccc3Cl)=NO[C@@H]2C1=O	inconclusive: 5.62 µM [activator, single point]
O=Cc1c[nH]c2ccc(C(=O)c3ccccc3)cc12	inactive
CN(C)S(=O)(=O)c1ccc(N2CCCC2)c(C(=O)Nc2nc3c(ccc4ccccc43)s2)c1	inactive
CCc1cccc2sc(N3CCN(C(=O)c4ccc([N+](=O)[O-])o4)CC3)nc12	inconclusive: 3.98 µM [activator, single point]
O=C(Nc1cccc(Cl)c1)C1C2CCC3C(CCC21)C3(Cl)Cl (stereo unspecified)	inactive
O=Nc1c(-c2c(O)[nH]c3ccccc23)[nH]c2ccccc12	inconclusive: 0.517 µM [activator, full curve]
CCN1CCN(S(=O)(=O)c2ccc(Cl)c(C(=O)N(C)Cc3ccco3)c2)CC1	inactive
Cc1cc(OCCCCCn2ccnc2)cc(C)c1Cl	inactive
CCc1cc(=O)oc2cc(C)cc(OCC(=O)NCCCN3CCOCC3)c12	inconclusive: 0.501 µM [activator, partial curve, poor fit]
CC(=O)OCC1OC(n2ccc3ccccc32)C(OC(C)=O)C(OC(C)=O)C1OC(C)=O (stereo unspecified)	inactive
O=C(CSc1ncn(-c2ccccc2)n1)Nc1ccc(Br)cn1	inconclusive: 12.6 µM [activator, single point]

No new results follow: entries from further up.
SMILES	Potency
Cc1cc(C)cc(C(=O)N2CCN(c3ccccn3)CC2)c1	inactive
Fc1cccc(CCN2C(=S)NC[C@@H]2Cc2ccccc2)c1	inactive
CC1Cc2ccccc2N1C(=S)NC(=O)c1ccc(Cl)cc1Cl (stereo unspecified)	inconclusive: 11.2 µM [activator, partial curve]
COc1ccc([C@H]2CC(=O)C=C(c3cc(Cl)ccc3OC)C2)cc1	inconclusive: 14.1 µM [activator, single point]
O=C(/C=C/c1ccc(Cl)cc1)N(c1ccccn1)C1CCCCC1	inconclusive: 15.8 µM [activator, partial curve]
CCOC(=O)C1(CCCc2ccccc2)CCN(S(C)(=O)=O)CC1	inactive
Cc1ccc(S(=O)(=O)N(CC(=O)Nc2cccnc2)c2cccc([N+](=O)[O-])c2)cc1	inactive
Cc1cccc(C)c1N1C(=O)[C@@H]2C(c3ccccc3Cl)=NO[C@@H]2C1=O	inconclusive: 5.62 µM [activator, single point]
O=Cc1c[nH]c2ccc(C(=O)c3ccccc3)cc12	inactive
CN(C)S(=O)(=O)c1ccc(N2CCCC2)c(C(=O)Nc2nc3c(ccc4ccccc43)s2)c1	inactive
CCc1cccc2sc(N3CCN(C(=O)c4ccc([N+](=O)[O-])o4)CC3)nc12	inconclusive: 3.98 µM [activator, single point]
O=C(Nc1cccc(Cl)c1)C1C2CCC3C(CCC21)C3(Cl)Cl (stereo unspecified)	inactive
O=Nc1c(-c2c(O)[nH]c3ccccc23)[nH]c2ccccc12	inconclusive: 0.517 µM [activator, full curve]
CCN1CCN(S(=O)(=O)c2ccc(Cl)c(C(=O)N(C)Cc3ccco3)c2)CC1	inactive
Cc1cc(OCCCCCn2ccnc2)cc(C)c1Cl	inactive

Reference: PubChem BioAssay AID485298 (National Center for Advancing Translational Sciences (NCATS), 2010)
